{"source": "patent US5494909A", "about": "“Substituted oxazinoisoquinoline derivatives, pharmaceutical compositions containing them and process for preparing same” (priority 1991, dated 1996)", "key": {"[1]": {"test_system": "Potassium-stimulated Ca uptake, synaptosomes prepared from rat brain", "test": "Inhibition of potassium-stimulated calcium uptake into rat brain synaptosomes", "settings": "read-out: Inhibition of Potassium-stimulated Ca uptake IC50, 60 mmoles/l KCl, pH 7.4, 37° C., 20 seconds"}, "[2]": {"test_system": "Veratrine-stimulated Ca uptake, synaptosomes prepared from rat brain", "format": "biochemical, rat (Wistar)", "settings": "pH 7.4; read-out: Inhibition of Veratrine-stimulated Ca uptake IC50"}}}
{"smiles": "C(=C\\c1ccccc1)/CN1CCN(C(c2ccccc2)c2ccccc2)CC1", "note": "[cinnarizine, 1trans-cinnamyl-4-(diphenylmethyl)piperazine]", "values": [{"measurement": "IC50", "setting": "[1]", "value": 71.6, "unit": "µM"}, {"measurement": "IC50", "setting": "[2]", "value": 1, "unit": "µM"}]}
